Data: paper PMC3734102
Results are given in words; binding and its absence hold for the method and conditions named. Binding seen in cells or lysates may run through a third protein. Some entries that bind do so weakly or less than the wild type. Tags and fused reporters may be left off the sequences shown.

T1: Cdc27p-9myc (S. cerevisiae) (UniProt P38042)
T1 sequence: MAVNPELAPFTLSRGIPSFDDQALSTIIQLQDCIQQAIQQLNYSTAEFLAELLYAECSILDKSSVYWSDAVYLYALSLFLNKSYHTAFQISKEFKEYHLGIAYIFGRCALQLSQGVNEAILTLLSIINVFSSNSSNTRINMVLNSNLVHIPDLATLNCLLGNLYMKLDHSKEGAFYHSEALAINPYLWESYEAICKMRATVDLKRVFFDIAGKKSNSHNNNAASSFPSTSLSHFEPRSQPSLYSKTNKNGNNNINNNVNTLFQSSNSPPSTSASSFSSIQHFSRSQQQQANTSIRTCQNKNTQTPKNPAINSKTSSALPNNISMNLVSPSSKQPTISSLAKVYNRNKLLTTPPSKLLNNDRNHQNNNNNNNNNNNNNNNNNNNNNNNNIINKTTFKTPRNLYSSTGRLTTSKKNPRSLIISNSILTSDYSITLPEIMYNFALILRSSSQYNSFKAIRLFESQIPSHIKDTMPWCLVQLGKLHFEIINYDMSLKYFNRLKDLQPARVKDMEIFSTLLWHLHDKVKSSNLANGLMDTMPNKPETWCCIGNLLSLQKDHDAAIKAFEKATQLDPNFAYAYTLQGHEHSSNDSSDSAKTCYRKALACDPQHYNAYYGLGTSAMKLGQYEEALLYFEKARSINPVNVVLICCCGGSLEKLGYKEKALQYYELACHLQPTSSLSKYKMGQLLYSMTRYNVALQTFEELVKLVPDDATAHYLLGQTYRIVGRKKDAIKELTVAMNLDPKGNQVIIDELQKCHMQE


Experiments:
[1] = target: T1, Cdc27p-9myc (S. cerevisiae); experiment: co-IP; Cdc27-9myc strain RSY1337 with GST or GST-Ama1p fusion plasmids, grown in raffinose/galactose medium to induce the fusion genes; 1 mg soluble protein; immunoprecipitation and immunoblot, with a no-antibody mock immunoprecipitation
[2] = target: T1, Cdc27p-9myc (S. cerevisiae); experiment: co-IP; Cdc27-9myc strain KCY328 with Ama1p-T7 plasmids, cells harvested 12 h after transfer to sporulation medium (meiosis); 1 mg soluble protein; immunoprecipitation and immunoblot; which protein was precipitated is not told

binding [1]	binding [2]	Binder
binds		GST-Ama1p^1-200 (domain or fragment, UniProt P50082 1-200) MATPHLYHRYNSKSSNKNINSSGNSTEVDRFIPKSVSRNAYKSIPMLNGFDISYSELCEKSPSPERLSSPEFFNELRNTGHYESISTTNEFSMSSISSSSESQVTRSGSARASRNDYSKLTKEQKDHRKNIAHSLGFQLPDRVFTFETTSAEILEKNKAIKNCFGPGSCAEIRSTFDFSTLSPDVARYYIANSNARSASP
	binds	Ama1p-T7 (protein, UniProt P50082 1-593) MATPHLYHRYNSKSSNKNINSSGNSTEVDRFIPKSVSRNAYKSIPMLNGFDISYSELCEKSPSPERLSSPEFFNELRNTGHYESISTTNEFSMSSISSSSESQVTRSGSARASRNDYSKLTKEQKDHRKNIAHSLGFQLPDRVFTFETTSAEILEKNKAIKNCFGPGSCAEIRSTFDFSTLSPDVARYYIANSNARSASPQRQIQRPAKRVKSHIPYRVLDAPCLRNDFYSNLISWSRTTNNVLVGLGCSVYIWSEKEGAVSILDHQYLSEKRDLVTCVSFCPYNTYFIVGTKFGRILLYDQKEFFHSSNTNEKEPVFVFQTESFKGICCLEWFKPGEICKFYVGEENGNVSLFEIKSLHFPIKNWSKRQKLEDENLIGLKLHSTYQAQAQQVCGISLNEHANLLAVGGNDNSCSLWDISDLDKPIKKFVLPHKAAVKAIAFCPWSKSLLATGGGSKDRCIKFWHTSTGTLLDEICTSGQVTSLIWSLRHKQIVATFGFGDTKNPVLITLYSYPKLSKLLEVRSPNPLRVLSAVISPSSMAICVATNDETIRFYELWNDKEEIINEIQESGIYGSNIIEYMEGIETTHNKRIR
